The source of these data is PubChem BioAssay AID1487 (National Center for Advancing Translational Sciences (NCATS), 2009).

This is one part of the list. The main result of the screen is listed elsewhere. These columns were measured beside it and carry no call. The list favours compounds with an active or inconclusive main result. The note in brackets gives the kind of curve behind each potency; many fits are weak.

This assay in a line: qHTS Assay for Modulators of Lamin A Splicing. The note with it: HeLa LMNA splicing GFP/RFP minigene ratio, 48 h. Summed up:
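S3 HeLa cells stably expressing lamin A-EGFP splicing minigene plus DsRed2, 600 cells/well, 48 h compound exposure at 37C. Laser-scanning cytometry; analysed as GFP (500-530 nm)/RFP (575-640 nm) total intensity ratio; 0.5% DMSO vehicle.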

[1] abbreviates: measured here: GFP splicing reporter channel.
Where [2] appears, read: measured here: RFP viability control channel.

A word on the AC50: it is the midpoint of the concentration-response curve, whichever way the signal moves. On to `COc1ccc(S(=O)(=O)N2CCCC(C(=O)Nc3ccc(OC)c(OC)c3)C2)cc1` (stereo unspecified), for which the AC50 under setting [1] was 12.6 µM [rising, single point] and the AC50 under setting [2] was 31.6 µM [rising, single point].
As to `CCN1CCN(c2ccc(NC(=O)COc3ccccc3Cl)cc2)CC1`, under setting [2], the concentration at half-maximal activity (AC50) is 35.5 µM [rising, single point].
Regarding `CC(C(=O)N1CCc2ccccc21)N1CCc2ccccc2C1` (stereo unspecified), the AC50 under setting [2] was 11.2 µM [rising, partial curve, poor fit].
With `CC(=O)C1=C(C)NC(SCC(=O)c2ccc(Cl)cc2Cl)=C(C#N)C1c1ccco1` (stereo unspecified), the AC50 runs as follows: under setting [1], 11.2 µM [rising, partial curve]; under setting [2], 25.1 µM [rising, single point].
As for `COc1ccnc(CSC(N)=Nc2cccc(C(F)(F)F)c2)c1`, the AC50 reads like this: under setting [1], 12.6 µM [rising, single point]; under setting [2], 17.8 µM [rising, single point].
Take `Cc1ccccc1NC(=O)c1ccc2nc(Cc3ccccc3)oc2c1`: the half-maximal activity concentration (AC50) under setting [2] is 2.24 µM [falling, partial curve].
As for `Cn1c(SCc2ccc(F)cc2)nc2c([nH]c3ccccc32)c1=O`, the concentration at half-maximal activity (AC50) reads like this: under setting [1], 0.794 µM [falling, full curve, poor fit]; under setting [2], 0.355 µM [falling, full curve, poor fit].
As to `COc1ccccc1C(=O)Nc1c(C(=O)N(CCN(C)C)Cc2ccco2)oc2ccccc12`, the half-maximal activity concentration (AC50) by setting is: under setting [1], 22.4 µM [falling, partial curve]; under setting [2], 28.2 µM [falling, single point].
For the compound `Cc1ccc(Cn2c(=O)n(-c3ccccc3)c(=O)c3ccc(C(=O)NCc4ccco4)cc32)cc1`, under setting [2], the AC50 is 3.16 µM [falling, partial curve, poor fit].
The same measure, in the same setting: under `Cc1onc(-c2c(F)cccc2Cl)c1C(=O)c1ccccc1O` stands 22.4 µM [falling, single point]; under `CCN1C(=O)c2cccc3c(NC(=O)c4ccc(S(=O)(=O)N5CCOCC5)cc4)ccc1c23`, 20 µM [rising, partial curve, poor fit]; under `COCCn1c(SC(C)C(=O)Nc2ncc(Cl)cc2Cl)nc2ccccc21` (stereo unspecified), 7.08 µM [rising, partial curve].
Still for that read-out and setting: under `CC1CCN(S(=O)(=O)c2cccc(C(=O)NCc3cccs3)c2)CC1` stands 35.5 µM [rising, single point]; under `O=C(NCCn1cc(SCc2ccc(F)cc2)c2ccccc21)c1c(F)cccc1F`, 31.6 µM [rising, single point].
Take `CC1(c2ccccc2)NC(=O)N(CC(=O)Nc2cccc(C#N)c2)C1=O` (stereo unspecified): the AC50 under setting [1] was 25.1 µM [rising, single point].
For `COc1ccc(NC(=S)N2CCN(c3ccccn3)CC2)cc1`, the concentration at half-maximal activity (AC50) under setting [2] is 22.4 µM [rising, partial curve, poor fit].
As to `CCCCCOc1ccc(Cn2ccnc2)cc1[N+](=O)[O-]`, the AC50 is 12.6 µM [rising, partial curve] under setting [1] and 22.4 µM [rising, partial curve] under setting [2].
Take `COc1cc(NC(=O)c2cc(-c3cccnc3)nc3ccc(Br)cc23)cc(OC)c1`: the AC50 under setting [1] is 0.00891 µM [falling, full curve, poor fit].
In the case of `COc1ccc(C)cc1S(=O)(=O)Nc1ccc(F)cc1`, the half-maximal activity concentration (AC50) under setting [2] was 0.0398 µM [falling, full curve].
Same read-out and setting: under `CSc1ccc(/C=N/N2CCN(c3ccccc3)CC2)cc1` stands 2 µM [rising, partial curve, poor fit].
Take `Cc1ccc(-c2nn3c(C)nnc3c3ccccc23)cc1S(=O)(=O)N1CCN(CCO)CC1`: the concentration at half-maximal activity (AC50) under setting [1] was 12.6 µM [rising, single point] and the AC50 under setting [2] is 14.1 µM [rising, single point].
As for `COc1cc2c(cc1O)C(SC)=NC(C)(C)C2`, the AC50 reads like this: under setting [1], 14.1 µM [falling, single point]; under setting [2], 17.8 µM [falling, single point].
As to `O=C(CSc1nnc(-c2ccc(F)cc2)c2ccccc12)NCC1CCCO1` (stereo unspecified), the half-maximal activity concentration (AC50) under setting [2] is 12.6 µM [rising, partial curve].
For the compound `S=C(Nc1ccc(Cl)c(Cl)c1)NC1CCCCC1`, under setting [2], the half-maximal activity concentration (AC50) was 25.1 µM [rising, single point].
With `CCOc1ccccc1NS(=O)(=O)c1ccc(Br)s1`, the half-maximal activity concentration (AC50) under setting [1] was 22.4 µM [rising, single point] and the AC50 under setting [2] is 35.5 µM [rising, single point].
For the compound `Cc1c(Cl)c(-c2n[nH]c(=S)n2CC(C)C)nn1C`, the concentration at half-maximal activity (AC50) under setting [2] is 31.6 µM [rising, single point].
The same measure, in the same setting: as for `COC(=O)c1sccc1NC(=S)N1CCN(c2ccccc2)CC1`, the figure is 35.5 µM [rising, single point]; as for `Cc1nc(-c2cccc(NC(=O)Cc3ccccc3)c2)cs1`, 35.5 µM [rising, partial curve, poor fit].
On the same count and under the same terms, under `Cc1ccsc1/C=N\NC(=O)c1n[nH]c2c1CCC2` stands 2.51 µM [rising, full curve, poor fit]; under `COC(=O)c1sccc1NC(=O)c1ccc(OC)cc1`, 11.2 µM [rising, partial curve].
In the case of `COc1cc(Cl)c(C)cc1NC(=O)c1cc2ccc3cccnc3c2[nH]1`, the concentration at half-maximal activity (AC50) is 22.4 µM [falling, partial curve] under setting [1] and 20 µM [falling, partial curve, poor fit] under setting [2].
Turning to `Cc1cccnc1NC(=O)COc1ccc2oc3c(c2c1)CCCC3`, under setting [2], the AC50 is 17.8 µM [rising, single point].
For the compound `CO[C@H]1[C@H](O[C@H]2O[C@@H](C)[C@@H](O[C@@H]3C[C@](C)(O)[C@H](OC(=O)CC(C)C)[C@H](C)O3)[C@@H](N(C)C)[C@@H]2O)[C@@H](CC=O)C[C@@H](C)[C@@H](O)/C=C\C=C/C[C@@H](C)OC(=O)C[C@H]1OC(C)=O`, the half-maximal activity concentration (AC50) under setting [1] is 0.000398 µM [falling, full curve, poor fit].
In the case of `NNC(=O)c1cc(-c2ccc(O)cc2)nc2ccc(Br)cc12`, under setting [2], the AC50 was 35.5 µM [falling, single point].
As to `Cc1ccc(-n2c(SCC(=O)Nc3ccc4c5c(cccc35)CC4)nc(O)c(C)c2=O)cc1`, the concentration at half-maximal activity (AC50) reads like this: under setting [1], 11.2 µM [rising, partial curve, poor fit]; under setting [2], 11.2 µM [rising, partial curve, poor fit].
